Measured values taken from paper PMC7673560.
These are yes or no findings as the source states them, for the method shown. In cells and extracts the contact can be indirect. These calls come from enrichment with a bait or labelling near it, and not all partners need be listed. Sequences can lack the tags named with a protein.

Target: T1, TOPOISOMERASE Iα with 4HA tag (TOP1α-4HA) (Arabidopsis thaliana) (UniProt P30181)
T1 sequence: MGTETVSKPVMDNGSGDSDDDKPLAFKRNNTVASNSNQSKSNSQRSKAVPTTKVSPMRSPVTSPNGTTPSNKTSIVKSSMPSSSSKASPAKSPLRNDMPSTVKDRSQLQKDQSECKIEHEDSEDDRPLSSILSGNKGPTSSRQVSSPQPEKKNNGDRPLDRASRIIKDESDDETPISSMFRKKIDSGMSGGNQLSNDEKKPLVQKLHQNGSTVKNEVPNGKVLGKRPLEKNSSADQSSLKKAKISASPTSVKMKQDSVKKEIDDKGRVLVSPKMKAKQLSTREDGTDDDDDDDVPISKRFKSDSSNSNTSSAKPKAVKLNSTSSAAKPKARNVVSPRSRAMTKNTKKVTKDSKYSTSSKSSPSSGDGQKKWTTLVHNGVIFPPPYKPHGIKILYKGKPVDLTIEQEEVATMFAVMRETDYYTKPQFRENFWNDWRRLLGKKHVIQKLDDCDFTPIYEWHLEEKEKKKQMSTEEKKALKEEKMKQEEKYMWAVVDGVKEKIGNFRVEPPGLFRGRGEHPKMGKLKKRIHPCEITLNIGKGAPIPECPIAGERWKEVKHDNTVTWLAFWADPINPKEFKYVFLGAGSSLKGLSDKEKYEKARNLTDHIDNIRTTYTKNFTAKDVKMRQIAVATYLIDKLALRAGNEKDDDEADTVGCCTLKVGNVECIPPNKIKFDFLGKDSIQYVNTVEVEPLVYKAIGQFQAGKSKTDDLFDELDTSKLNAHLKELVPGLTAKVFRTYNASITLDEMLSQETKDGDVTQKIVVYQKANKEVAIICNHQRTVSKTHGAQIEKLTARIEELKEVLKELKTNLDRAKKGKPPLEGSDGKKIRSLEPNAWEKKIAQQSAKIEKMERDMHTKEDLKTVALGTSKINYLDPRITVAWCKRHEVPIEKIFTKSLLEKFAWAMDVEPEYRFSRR
Assay: affinity purification with mass spectrometry; CoIP coupled with LC-MS/MS of nuclear extracts of young siliques from top1α-10 gTOP1α-4HA; immunoprecipitated proteins eluted and analysed on a TripleTOF 5600

binding: binds
B1: UP-… SUPPRESSOR 1 (UPF1), endogenous (enzyme, UniProt Q9FJR0 1-1254)
chain: MDSQQSDLFDTASQPDTVADEYTFLEFNTQGDSEFDYQDFGSPTAWPTPSDSISIADVADRGEGGAAADHHSEASSPSSLSAGAGNGAKVGRGGVGGSGGVSSSSQVDALAAGVGNLNFEETGDDDGFDYGKNDFTEHACKYCGISNPACVVRCNVASCRKWFCNSRGNTSGSHIVNHLVRAKHKEVCLHRDSPLGETILECYNCGCRNVFLLGFISAKTDSVVVLLCRDPCLNVNALKDMNWDLSQWCPLIDDRCFLPWLVKVPSEQEQLRARQISAQQINKIEELWKTNPDATLEDLEKPGVDDEPQPVQPKYEDAYQYQNVFAPLIKLEADYDKMMKESQSKENLTVRWDIGLNKKRVAYFVFPKEENELRLVPGDELRLRYSGDAVHPSWQSVGHVIKLTAQEEVALELRANQGVPIDVNHGFSVDFVWKSTSFDRMQGAMKNFAVDETSVSGYIYHQLLGHEVEAQMVRNTLPRRFGVPGLPELNASQVNAVKSVLQKPISLIQGPPGTGKTVTSAAIVYHMAKQGQGQVLVCAPSNVAVDQLAEKISATGLKVVRLCAKSREAVSSPVEYLTLHYQVRHLDTSEKSELHKLQQLKDEQGELSSSDEKKYKNLKRATEREITQSADVICCTCVGAADLRLSNFRFRQVLIDESTQATEPECLIPLVLGVKQVVLVGDHCQLGPVIMCKKAARAGLAQSLFERLVTLGIKPIRLQVQYRMHPALSEFPSNSFYEGTLQNGVTIIERQTTGIDFPWPVPNRPMFFYVQLGQEEISASGTSYLNRTEAANVEKLVTAFLKSGVVPSQIGVITPYEGQRAYIVNYMARNGSLRQQLYKEIEVASVDSFQGREKDYIILSCVRSNEHQGIGFLNDPRRLNVALTRARYGIVILGNPKVLSKQPLWNGLLTHYKEHECLVEGPLNNLKQSMVQFQKPRKIYNDRRLFYGGGAGMIGNDNFGSGNPNADRRGSRGRAGGSYLPSGPPNGARPGLHPAGYPIPRVPLSPFPGGPPSQPYAIPTRGPVGAVPHAPQPGNHGFGAGRGTSVGGHLPHQQATQHNVGTIGPSLNFPLDSPNSQPSPGGPLSQPGYGSQAFRDGFSMGGISQDFLADDIKSQGSHDPYNMADFATQASPGGFAVDYATQGAHGAFPGNFMNQNSQGGYSRFSGINDFMSQEYMAHGGQGLFTQAGFIDSSQDDGQQNPYGVNNPNLQSQGLPNSLYSQPFAHYNTQPLNLSGPQQSQPNQSSQNPKHPYNG
